# PubChem BioAssay AID1347423 (Functional Genomics Laboratory (NCATS/FGL), 2020)
# Among all 52,000 sequences or so, about 210 (0.4%) were called active.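 Rule for the calls: active = gene whose silencing raises cell survival under the drug, median off-target-corrected z-score across its silencing RNAs 2 or more; inactive = the rest.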 Some of the results follow.
# Assay: Resistance to Poly (ADP-Ribose) Polymerase inhibitor: Gene Identification via Genome-wide siRNA Screen
# Settings: mouse BRCA2 R2336H ES cells, olaparib, CellTiter-Glo viability; stronger effect = higher value
# Summary of the method: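 Mouse BRCA2 R2336H ES cells were reverse-transfected with siRNA (20 nM final), treated at 48 h with 500 nM olaparib, and read by CellTiter-Glo after 72 h. Scores: MAD-based z per siRNA, median per gene, seed off-target correction.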
row,Sequence,z-score
1,CGCUCAUUUAGACAUAGAGTT against Ass,inactive: 0.391
2,GGGCUUUGAUCGACGGAUUTT against 4933402J24Rik,inactive: 0.946
3,GGAAGUUGGAAAGAACCUATT against Bcl2a1c,inactive: -0.0432
4,GGACCUGAAUAAGACUAUUTT against Lgmn,inactive: 0.124
5,GCAGCUAGGUAAUAGGAAUTT against Nsg2,inactive: 1.1
6,GGUCGAUGCUUCGAAACCATT against 6820408C15Rik,inactive: -0.625
7,GGAACUGUGGAAGGAAUUCTT against Tbx6,inactive: -0.974
8,GGCCUAGCAAGGGAUUUUATT against 2410030J07Rik,inactive: 1.92
9,GGCAACAGAGCUGACCCUATT against F630111L10Rik,inactive: -2.72
10,GGACACUCAGAAGAAAACCTT against 6820443O06Rik,inactive: 0.321
11,CCACAUCUUUGACGAGUACTT against Rgs16,inactive: -1.51
12,CGAUCCGAAUGGGUCGACUTT against Bola1,inactive: 0.346
13,GCAUAUAAUGUCUAACUCGTT against Eml4,inactive: 0.136
14,GAUCUAUCACCGGUACUGCTT against Gys1,inactive: 1.63
15,GCCGGUCUAACUUUCCAAUTT against Ssbp3,inactive: -0.948
16,GCAAUUCUGCAAGUGAUUATT against Spata5l1,inactive: 0.0556
17,CGCCUACAGCUCUAUCUUATT against 2700062C07Rik,inactive: 1.03
18,GGAUACAUACUGGACAAAATT against 6720457D02Rik,inactive: -0.163
19,GGAAAAUGAGAGAUUACGATT against D530005L17Rik,inactive: 1.01
20,GGGUGCCUACUUGAUCCUUTT against Brp16,inactive: 2.4
21,GAAUUCCAGCUUUUCCCUUTT against Klra22,inactive: -0.76
22,GGUCCAGAUUGCUUAGAUGTT against 2310061J03Rik,inactive: 0.683
23,GGAUGAAAAGCUUAUUCGUTT against Ddx5,inactive: -2.31
24,GCUUUAGUCAUUUGAACAUTT against Rap2c,inactive: 0.274
25,GGAAGAUUUCGAUAAGCUCTT against Cacna1h,inactive: 0.147
26,CCACUGAUCCUUUGACAGCTT against Zfy2,inactive: -0.349

row,Sequence,z-score
1,GGAGCUGUUUGACCAAAUCTT against Epb4.1l5,inactive: -0.875
2,GCUAACUUGCUCAUGCAAATT against 2310001N14Rik,inactive: 0.568
3,CCAUUUACCUCAUAGGACCTT against Crb3,inactive: -1.45
4,GGCGGAGUUCUCAAGACUUTT against BC036718,inactive: -0.842
5,GGAUGAGCAGAUGCUCCAATT against Mtmr7,inactive: -0.619
6,GGAAGAAAAUCUUGAAGCATT against Ddx51,inactive: -1.54
7,GGCCCUUCCCAAAGUAUUATT against Mup3,inactive: 0.32
8,GGAUUAGCUGCAUGAAAGATT against 4930542N07Rik,inactive: -1.03
9,GGUCAUUCUGGCAUUAAUGTT against Clecsf13,inactive: 0.83
10,GGUGGAGCUGCUCAAGAUUTT against Fkbp2,inactive: -1.61
11,GGAUGUACGGAAGCGAUUCTT against Gmpr2,inactive: 0.0645
12,CCUUCUAGCCAAGACUGGATT against A330090H18,inactive: -1.23
13,GCAACAUUCGAGCUGGAAATT against AL033314,inactive: 2.14
14,GGUUACCUGUGAAAAUAGUTT against Zfp606,inactive: 0.368
15,GGGAAAUAAUGAUUGGUCUTT against D130064H19Rik,inactive: 2.21
16,GCAACUCGUACAAAAGGCGTT against Cnga1,inactive: 0.114
17,GCUAAUAGCCUGCCUAAGGTT against Plekhj1,inactive: -2.43
18,GGAAUAUUGUGCAUCAAAGTT against 4432409M07Rik,inactive: -0.094
19,GGUGGUUCAGUUCAAUCGUTT against Map2k1ip1,inactive: -0.16
20,GGAACUAUUGAGUUGUUGUTT against Pcdha5,inactive: 0.538
21,GGUGGUGUCUUCUGUGCAATT against Cd3d,inactive: -1.11
22,GGAAAUCAGUGAACAUCUUTT against Tshr,inactive: 0.237
23,GGCUUGGUGUUUUGAUUAGTT against Lzf,inactive: 0.228
24,GCGGAGAUCCUACAAUGUUTT against Gpatc2,inactive: -1.21
25,GCAGUGUGAUAAAAGAGGATT against F830020C16Rik,inactive: 0.644
26,CGGAUUCCUAAAAGUUAUATT against Appbp1,inactive: -0.151

row,Sequence,z-score
1,GAAUGCGAAGCCUUCCGCATT against Gfra4,inactive: 0.661
2,GGAAAAGCAUUUUCAACGUTT against Lhfpl2,inactive: 0.497
3,GCACCGGGAUUUGGUGCAATT against Rbm21,inactive: -0.0364
4,GGAAAAAUUGAAGUUGAUCTT against D230050A05,inactive: 1.45
5,GGUGACUAUUAGAAGUAAATT against Gtf3c4,inactive: -1.04
6,CCUAAACCCAUUCCAGUCUTT against Dpm3,inactive: -1.18
7,GAUAUUGCUCUCCAAUCUATT against 2310034C09Rik,inactive: -0.614
8,GGCAAGGACUCGAAGACUATT against 9630028B13Rik,inactive: -0.811
9,GGGCAGUUCUCUUUGCCAATT against Gns,inactive: 1.04
10,CCAUUAAUAAAGCGUGGGUTT against Cacybp,inactive: 0.395
11,GUUCAUUUGUCAUCACUGUTT against Prss2,inactive: 0.38
12,GGAAUAUUUGCUUCGACAGTT against AI839550,inactive: 1.38
13,GGACAUUGUCACAUCAUUCTT against Slc2a6,inactive: -0.581
14,GGCAAUGUUUACAAGUUCCTT against Ralgps1,inactive: -0.546
15,GGCAUCAAGCACAAGAAAATT against 2610042O14Rik,inactive: -0.00446
16,CCCACCAGUAAGGAGUUCATT against Dido1,inactive: 0.964
17,GGUUGGCUUGGAAAUGGGATT against Nanos2,inactive: 0.0901
18,GCACUAUCCAGGAGCAUUUTT against AI313915,inactive: -0.571
19,GGAGGAAGUCGUCUUUGGATT against Olfr1377,inactive: -0.0553
20,GCCUCUUGAUGUUAAAGUATT against Krt2-17,inactive: -1.25
21,GGACUGUCCAAAAGAAAGGTT against Tnfrsf18,inactive: -1.21
22,GGAAAACCAUGACAUCAUATT against Man2a2,inactive: 1.1
23,CGCAGUUCAUCGCAUGAUUTT against Arhgef12,inactive: 1.15
24,GCAACAAGUCUGGAGACAATT against Pbp,inactive: 0.031
25,GGAUUUAACAACGAGAGAATT against Rasgrf2,inactive: 0.346
26,GCACAAGAUGUUCACACUATT against Siva,inactive: -1.49

# 29 entries from above, with bars between the fields:
row | Sequence | z-score
3 | CCAUUUACCUCAUAGGACCTT against Crb3 | inactive: -1.45
4 | GGCGGAGUUCUCAAGACUUTT against BC036718 | inactive: -0.842
5 | GGAUGAGCAGAUGCUCCAATT against Mtmr7 | inactive: -0.619
6 | GGAAGAAAAUCUUGAAGCATT against Ddx51 | inactive: -1.54
7 | GGCCCUUCCCAAAGUAUUATT against Mup3 | inactive: 0.32
8 | GGAUUAGCUGCAUGAAAGATT against 4930542N07Rik | inactive: -1.03
9 | GGUCAUUCUGGCAUUAAUGTT against Clecsf13 | inactive: 0.83
10 | GGUGGAGCUGCUCAAGAUUTT against Fkbp2 | inactive: -1.61
11 | GGAUGUACGGAAGCGAUUCTT against Gmpr2 | inactive: 0.0645
12 | CCUUCUAGCCAAGACUGGATT against A330090H18 | inactive: -1.23
13 | GCAACAUUCGAGCUGGAAATT against AL033314 | inactive: 2.14
14 | GGUUACCUGUGAAAAUAGUTT against Zfp606 | inactive: 0.368
15 | GGGAAAUAAUGAUUGGUCUTT against D130064H19Rik | inactive: 2.21
16 | GCAACUCGUACAAAAGGCGTT against Cnga1 | inactive: 0.114
17 | GCUAAUAGCCUGCCUAAGGTT against Plekhj1 | inactive: -2.43
18 | GGAAUAUUGUGCAUCAAAGTT against 4432409M07Rik | inactive: -0.094
19 | GGUGGUUCAGUUCAAUCGUTT against Map2k1ip1 | inactive: -0.16
20 | GGAACUAUUGAGUUGUUGUTT against Pcdha5 | inactive: 0.538
21 | GGUGGUGUCUUCUGUGCAATT against Cd3d | inactive: -1.11
22 | GGAAAUCAGUGAACAUCUUTT against Tshr | inactive: 0.237
23 | GGCUUGGUGUUUUGAUUAGTT against Lzf | inactive: 0.228
24 | GCGGAGAUCCUACAAUGUUTT against Gpatc2 | inactive: -1.21
25 | GCAGUGUGAUAAAAGAGGATT against F830020C16Rik | inactive: 0.644
26 | CGGAUUCCUAAAAGUUAUATT against Appbp1 | inactive: -0.151
1 | GAAUGCGAAGCCUUCCGCATT against Gfra4 | inactive: 0.661
2 | GGAAAAGCAUUUUCAACGUTT against Lhfpl2 | inactive: 0.497
3 | GCACCGGGAUUUGGUGCAATT against Rbm21 | inactive: -0.0364
4 | GGAAAAAUUGAAGUUGAUCTT against D230050A05 | inactive: 1.45
5 | GGUGACUAUUAGAAGUAAATT against Gtf3c4 | inactive: -1.04

# The listing continues.

row,Sequence,z-score
1,GGUCAACGUGAAGACUUCCTT against Ly6a,inactive: -1.02
2,GGAAAUUUGCCGGCCAAAUTT against BC030396,inactive: -1.11
3,GGUAGCAUGCUUUUGGUGCTT against 1300004G08Rik,inactive: 1.2
4,GGCAAGUCUGUGUGCAGAUTT against Olfr267,inactive: -2.91
5,GCAGCCGCUUUAAUUAAAATT against Apaf1,inactive: 0.843
6,GGAAAAUCUCUUGGGACGATT against Myo6,inactive: 1.56
7,CCAGACCUACAAUGAGAUGTT against Gga1,inactive: -0.219
8,GGAUUUGUGCAGGAAUGCCTT against Slc6a18,inactive: -0.366
9,CCAGAUGCUGACUUGAACATT against Dpep1,inactive: 0.625
10,GCAUCACAGAAACUGAGCATT against Pou6f2,inactive: 0.867
11,GGUCUAGGAAACCUUCAGCTT against Map17,inactive: 0.302
12,GGCAGUAAUCAACAAAUAGTT against Lrrtm4,inactive: -1.49
13,GGGCCUUCUUCCUAAAUUUTT against Mat2a,inactive: 0.0628
14,CCACUCCAACUAGUGUUAATT against Pcdha10,inactive: 0.294
15,GGUUUAUGAGCUCUACGCCTT against 5730466P16Rik,inactive: -0.323
16,CCACACUAACUUGUAAUUUTT against Rasgrp1,inactive: -0.422
17,GGAAAAAAGAGAGGUCAGATT against Meox1,inactive: -0.177
18,GCUAGAAGCUCUUCAGAAATT against Zcwcc1,inactive: -1.31
19,GGUGCUUCACAGAAUGUGUTT against Olfr784,inactive: -0.446
20,GUAAGGUCACCGGGUUGCATT against Lor,inactive: -0.57
21,GCUAUAUCAGCAGAAUGGCTT against Spag4l,inactive: 0.176
22,GCAAAAGGUUAAACUGAUATT against Fbxl14,inactive: -0.302
23,GCUAUCCUCAAAAUUCCUUTT against Olfr412,inactive: -0.325
24,GGUUCUACCUUUCAUGAGUTT against LOC432615,inactive: 0.283
25,GGAUAAAGCCACAUUUGGUTT against Apoh,inactive: -0.39
26,GGCUUUAGUUCUUUUGUAATT against Mmd,inactive: 2.18
